According to article PMC9995463:
Results are given in words; binding and its absence hold for the method and conditions named. For some assays here: In cells and extracts the contact can be indirect. Some results given as binding are weak or reduced against the parent protein; the word gives no strength.

Tests used:
[1] = target: claudin-10b wildtype (human) (UniProt P78369); assay: contact enrichment assay (live cell imaging); fluorescence at contacts of two claudin-expressing HEK293 cells against their contacts with non-expressing cells; enrichment factor >1 counted positive; read as trans interaction; HEPES-buffered bath solution pH 7.4, 37 °C
[2] = target: claudin-10b wildtype (human) (UniProt P78369); assay: FRET or BRET; acceptor-photobleaching FRET in live HEK293 cells co-transfected with EYFP- and ECFP-tagged claudin-10b; read as cis interaction; HEPES-buffered bath solution pH 7.4, 37 °C

B1: claudin-10b wildtype (protein, UniProt P78369-1 1-228)
chain: MASTASEIIAFMVSISGWVLVSSTLPTDYWKVSTIDGTVITTATYWANLWKACVTDSTGVSNCKDFPSMLALDGYIQACRGLMIAAVSLGFFGSIFALFGMKCTKVGGSDKAKAKIACLAGIVFILSGLCSMTGCSLYANKITTEFFDPLFVEQKYELGAALFIGWAGASLCIIGGVIFCFSISDNNKTPRYTYNGATSVMSSRTKYHGGEDFKTTNPSKQFDKNAYV
- binding [1]: binds
- binding [2]: binds
